Structures can show the parent of a compound that is named as a salt. Where two headings read alike, the source gives them in different places. Among all 3,300 compounds or so, about 60 (2%) showed an effect of 50% or more. This is one part of the list. Peptide text beside a SMILES is read from it.
Tested on: HCoV-OC43
Set-up: species or system RD; HTS, protection from HCoV-OC43 induced cell death, luminescent cell viability (CellCounting-Lite 2.0), inhibition rate
Details: 24 h post infection, 1 h compound pre-incubation, 10 µM, inhibitor

Structure (SMILES)	OC43 Inhibition rate [%]	OC43 Inhibition rate (OC43 Inhibition rate, 24 h) [%]
COc1cc2oc(=O)ccc2cc1O[C@@H]1O[C@H](CO)[C@@H](O)[C@H](O)[C@H]1O [Magnolioside]	-0.1	–
O=P(O)(O)O[C@H]1[C@H](OP(=O)(O)O)[C@@H](OP(=O)(O)O)[C@H](OP(=O)(O)O)[C@@H](OP(=O)(O)O)[C@H]1OP(=O)(O)O [Phytic acid (dodecasodium hydrate)]	–	-0.3
NC(N)=NCCCC(=O)O [4-Guanidinobutanoic acid]	7.6	–
C=C1[C@@H](C)[C@H]2[C@H](Cc3ccccc3)NC(=O)[C@]23OC(=O)/C=C/[C@H](O)CCC[C@@H](C)C/C=C/[C@H]3[C@@H]1O [Cytochalasin B]	63	–
Nc1ccn([C@@H]2O[C@H](COP(=O)(O)OP(=O)(O)OP(=O)(O)O)[C@@H](O)[C@H]2O)c(=O)n1 [Cytidine-5'-triphosphate (disodium)]	1.6	–
CC[C@H]1OC(=O)[C@H](C)[C@@H](O[C@H]2C[C@@](C)(OC)[C@@H](O)[C@H](C)O2)[C@H](C)[C@@H](O[C@@H]2O[C@H](C)C[C@H](N(C)C)[C@H]2O)[C@](C)(O)C[C@@H](C)C(=O)[C@H](C)[C@@H](O)[C@]1(C)O [Erythromycin]	9.7	–
CC(=O)OC/C=C(/C)CCC=C(C)C [Neryl acetate]	0.1	–
CC(C)C(=O)C(=O)O [3-Methyl-2-oxobutanoic acid]	-0.3	–
C[C@@H]1O[C@@H](OC[C@H]2O[C@@H](OCCc3ccc(O)c(O)c3)[C@H](O)[C@@H](O)[C@@H]2O)[C@H](O)[C@H](O)[C@H]1O [Forsythoside E]	-0.7	–
O=C1C[C@@H](c2ccc(O[C@@H]3O[C@H](CO)[C@@H](O)[C@H](O)[C@H]3O)cc2)Oc2cc(O)ccc21 [Liquiritin]	-2.3	–
COc1c(O[C@@H]2O[C@H](C(=O)O)[C@@H](O)[C@H](O)[C@H]2O)cc2oc(-c3ccccc3)cc(=O)c2c1O [Oroxylin A-7-O-glucuronide]	-0.2	–
COc1ccc2c3c1O[C@H]1C[C@@H](O)CC[C@]31CCN(C)C2 [Lycoramine]	-0.4	–
C[C@@H]1CC[C@H]2C(C)(C)[C@H]3C[C@@]12CC[C@@]3(C)O [Cedrol]	0.9	–
CC[C@@H]1/C=C/C=C/C[C@H](C)[C@H](O)[C@](C)(O)C(=O)[C@H](C)[C@@H](O)[C@H](C)C(=O)[C@H](C)[C@@H](O)[C@H](C)/C=C/C(=O)O[C@H]2[C@@H](C)[C@@H](CC1)O[C@@]1(CC[C@@H](C)[C@@H](C[C@H](C)O)O1)[C@@H]2C [Oligomycin A]	-2.5	–
C=CC(=C)CCC=C(C)C [Myrcene]	-1.2	–
CCCCCCCCCCCCCCCCCC(=O)NCc1ccccc1 [N-Benzyloctadecanamide]	-0.1	–
C[C@H](N)C(=O)N[C@@H](CCC(N)=O)C(=O)O [L-Alanyl-L-glutamine] (H-Ala-Gln-OH)	3.4	–
O=c1cc(-c2ccccc2)oc2cc(O[C@@H]3O[C@H](CO[C@@H]4O[C@H](CO)[C@@H](O)[C@H](O)[C@H]4O)[C@@H](O)[C@H](O)[C@H]3O)c(O)c(O)c12 [Oroxin B]	0.2	–
N[C@@H](CCC(=O)O)C(=O)O [L-Glutamic acid]	–	-0.4
CO[C@H]1C[C@H](O[C@H]2[C@H](C)O[C@@H](O[C@@H]3/C(C)=C/C[C@@H]4C[C@@H](C[C@]5(C=C[C@H](C)[C@@H](C6CCCCC6)O5)O4)OC(=O)[C@@H]4C=C(C)[C@@H](O)[C@H]5OC/C(=C\C=C\[C@@H]3C)[C@]54O)C[C@@H]2OC)O[C@@H](C)[C@@H]1O [Doramectin]	4.2	–
C[n+]1c2n(c(=O)c3ccccc31)CCc1c-2[nH]c2ccccc12 [Dehydroevodiamine (hydrochloride)]	1.2	–

Structure (SMILES)	OC43 Inhibition rate [%]	OC43 Inhibition rate (OC43 Inhibition rate, 24 h) [%]
CCCCCCCCC/C=C/C(=O)CCc1ccc(O)c(OC)c1 [[10]-Shogaol]	0	–
CC(C)C[C@@H](N)C(=O)O [D-Leucine]	3	–
O=C1C[C@@H](O[C@@H]2O[C@H](CO)[C@@H](O)[C@H](O)[C@H]2O)CO1 [Kinsenoside]	1.3	–
COC(=O)c1cc(O)c(O)c(OC)c1 [Methyl 3-O-methylgallate]	-4.2	–
C[C@H](O)CO [(S)-(+)-1,2-Propanediol]	0.1	–
COC(=O)/C=C/c1ccc(O)cc1 [Methyl p-coumarate]	–	4.7
O=C1O[C@H]([C@@H](O)CO)C(O)=C1OP(=O)(O)O [L-Ascorbic acid 2-phosphate (trisodium)]	9.8	–
Oc1cccc2ccccc12 [1-Naphthol]	0	–
C=C1C(=O)O[C@H]2C[C@@H](C)[C@@H]3C=CC(=O)[C@@]3(C)[C@@H](OC(C)=O)[C@H]12 [Bigelovin]	-8.7	–
CC1=NCC[C@@H](C(=O)O)N1 [Ectoine]	4	–
C[C@H]1[C@H]2[C@H](O[C@@H]3O[C@H](CO)[C@@H](O)[C@H](O)[C@H]3O)OC=C(C(=O)O)[C@H]2C[C@@H]1O [8-Epiloganic acid]	-0.9	–
N[C@H]1[C@H](O[C@H]2[C@H](O)[C@@H](N)[C@H](O[C@H]3[C@H](O)[C@@H](N)[C@H](O[C@H]4[C@H](O)[C@@H](N)[C@H](O[C@@H]([C@H](O)[C@@H](N)C=O)[C@H](O)CO)O[C@@H]4CO)O[C@@H]3CO)O[C@@H]2CO)O[C@H](CO)[C@@H](O)[C@@H]1O [Chitopentaose (pentahydrochloride)]	9.1	–
O=C1C[C@@H](c2ccccc2)Oc2cc(O)cc(O)c21 [Pinocembrin]	2.4	–
O=P(O)(O)O[C@H]1O[C@H](CO)[C@@H](O)[C@H](O)[C@H]1O [α-D-Glucose-1-phosphate (disodium hydrate)]	6.2	–
C=C1[C@H](OC(=O)/C=C(\C)CC)C[C@@H](C(C)C)[C@@H]2[C@@H]([C@@H](C)OC(C)=O)C(=O)C[C@@H]12 [Tussilagone]	60.7	–
N[C@@H](CCC[C@H](N)C(=O)O)C(=O)O [2,6-Diaminoheptanedioic acid]	1.4	–
O=C(O)Cc1cccc(O)c1 [3-Hydroxyphenylacetic acid]	-0.3	–
C[C@@]12C[C@@]3(O)O[C@@H](O1)[C@]1(COC(=O)c4ccc(O)cc4)[C@H]3C[C@@]12O[C@@H]1O[C@H](COC(=O)c2ccccc2)[C@@H](O)[C@H](O)[C@H]1O [Benzoyloxypaeoniflorin]	0.5	–
COc1ccc([C@@H]2CC(=O)c3c(O)cc(O)cc3O2)cc1O [Hesperetin]	0	–
O=C1O[C@H]([C@H](O)CO)C(O)=C1O [Erythorbic acid]	–	0.7
O=c1cc(-c2ccccc2)oc2c(O)c(O)ccc12 [7,8-Dihydroxyflavone]	0.2	–

Structure (SMILES)	OC43 Inhibition rate [%]	OC43 Inhibition rate (OC43 Inhibition rate, 24 h) [%]
CC(C)CCCO [4-Methyl-1-pentanol]	1.4	–
COc1cc(C)c2c(=O)cc(C[C@@H](C)O)oc2c1[C@@H]1O[C@H](CO)[C@@H](O)[C@H](O)[C@H]1OC(=O)/C=C/c1ccc(O)cc1 [Aloeresin D]	3.4	–
CCCCCCCCCCCCCCCO [1-Pentadecanol]	1	–
Nc1nc(N)nc(N)n1 [Melamine]	-0.3	–
Cc1ccc2ccc(=O)oc2c1 [7-Methylcoumarin]	0.5	–
COC(=O)c1cc(OC)c(OC)c(OC)c1 [Methyl 3,4,5-trimethoxybenzoate]	-0.3	–
C=C[C@H]1[C@H](O[C@@H]2O[C@H](CO)[C@@H](O)[C@H](O)[C@H]2O)OC=C2C(=O)N3CCc4c([nH]c5ccccc45)[C@@H]3C[C@H]21 [Strictosamide]	1.9	–
CSCCC(NC(C)=O)C(=O)O (racemic) [N-Acetyl-DL-methionine]	-0.1	–
Oc1ccc2ccccc2c1 [2-Naphthol]	1.3	–
COc1c2occc2cc2ccc(=O)oc12 [Methoxsalen]	2.3	–
O=C(N[C@@H](Cc1ccccc1)C(=O)N[C@H](CO)Cc1ccccc1)c1ccccc1 [Aurantiamide]	1	–
COc1ccc(CCO)cc1 [4-Methoxyphenethyl alcohol]	-0.3	–
CC1(C)CC[C@]2(C(=O)O[C@@H]3O[C@H](CO)[C@@H](O)[C@H](O)[C@H]3O)CC[C@]3(C)C(=CC[C@@H]4[C@@]5(C)CC[C@H](O[C@@H]6O[C@H](C(=O)O)[C@@H](O)[C@H](O)[C@H]6O)C(C)(C)[C@@H]5CC[C@]43C)[C@@H]2C1 [Chikusetsusaponin Iva]	7.6	–
CC(C)CC(N)=O [Isovaleramide]	-0.6	–
N[C@@H](Cc1c[nH]cn1)C(=O)O [L-Histidine (hydrochloride hydrate)]	–	2.4
CC1=C[C@H]2[C@@]3(O)[C@H](C)[C@@H](O)[C@]4(O)[C@H]([C@@H]3C=C(CO)C[C@]2(O)C1=O)C4(C)C [Phorbol]	0.2	–
C=C1C(=O)O[C@H]2C[C@@H](C)[C@@H]3[C@@H](OC(C)=O)C[C@H](O)[C@@]3(C)[C@@H](OC(C)=O)[C@H]12 [Britannin]	2.5	–
N#Cc1ccc(C(c2ccc(C#N)cc2)n2cncn2)cc1 [Letrozole]	3.4	–
CCCCCCCCCCCCCCCCCCOCC(O)CO (stereo not shown) [Batilol]	-1.3	–

Reprinted at random: 3 entries already listed.
Structure (SMILES)	OC43 Inhibition rate [%]	OC43 Inhibition rate (OC43 Inhibition rate, 24 h) [%]
C=C[C@H]1[C@H](O[C@@H]2O[C@H](CO)[C@@H](O)[C@H](O)[C@H]2O)OC=C2C(=O)N3CCc4c([nH]c5ccccc45)[C@@H]3C[C@H]21 [Strictosamide]	1.9	–
C=C1C(=O)O[C@H]2C[C@@H](C)[C@@H]3[C@@H](OC(C)=O)C[C@H](O)[C@@]3(C)[C@@H](OC(C)=O)[C@H]12 [Britannin]	2.5	–
CSCCC(NC(C)=O)C(=O)O (racemic) [N-Acetyl-DL-methionine]	-0.1	–

Source: paper PMC12431657, “Discovery and mechanistic insights of dibenzoylmethane as a broad spectrum inhibitor of coronavirus” (PLOS Pathogens, 2025)
